# The list shows only some results of the screen, not a fair sample: it gathers tests that were run many times, whatever their T/C, doses with no T/C, and many T/C values between a quarter and a half above the control. Other doses and runs of a compound stand elsewhere. T/C gives the treated animals as a percentage of the vehicle group. Some entries give survivors of the animals treated and no T/C: the source holds a T/C of zero for them, seemingly a mark for toxic or unscored doses. Some doses without a T/C left all or most animals alive at the check, yet need not have been tolerated: the source hardly ever lists a survival T/C far under the control, and the zero likely stands for such cases as well. Survivors were counted at the toxicity check, usually on the fifth day, unless a day is given; later deaths do not show. Schedule codes are those of the source, read here as Q, the interval in days (D) or hours (H), X, the number of doses. Some molecules as drawn cover several salts, stereoisomers or complexes of the source; a dose is that of the sample tested. For survival time, this PubChem deposit counts one and a half times the control or more as active, and values a quarter to a half above the control carry no call in these data; other NCI protocols may use other cut-offs. Some T/C values are followed by the survivors on the day toxicity was checked, most often the fifth; without a count, all were alive then. Some entries hold several experiments; the values are given in rising order. Starred links: 1 amine or outer side, 2 acyl side, 3 side chain; linkers in the order of their positions; H or OH if unused. Positions of bridges follow the written chain, without caps; N, C: chain ends. Non-standard residues stand in square brackets, D forms with d. Residues, ends and D or L forms follow the SMILES beside them. Chains are numbered I, II in the order given. Actinocin(1to9) = Cc1c2oc3c(C)ccc(C(=O)[*:2])c3nc-2c(C(=O)[*:1])c(N)c1=O; X2 = CC(=O)OC1CC(C)N([*:1])C1C(=O)[*:2]; X1 = CC1CC(=O)C(C(=O)[*:2])N1[*:1]; NMeV = CN[CH](C(=O)O)C(C)C; NMeA = CN[CH](C)C(=O)O; Sar = CNCC(=O)O
# System: BDF1 mice, P388 leukemia ip, median survival T/C
# Test: NCI In Vivo Anticancer Drug Screen. Data for tumor model P388 Leukemia (intraperitoneal) in B6D2F1 (BDF1) mice
# Conditions: T/C endpoint: median survival time, higher T/C = longer survival
# Outline: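 Reported as T/C, where T is the survival measurement in dosed animals and C the same measurement in vehicle controls.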
# [1] = dose: 50.0 mg/kg/injection, schedule: Q01DX009 (ip), vehicle: saline
# [2] = dose: 100.0 mg/kg/injection, schedule: Q01DX009 (ip), vehicle: saline
# [3] = dose: 200.0 mg/kg/injection, schedule: Q01DX009 (ip), vehicle: saline
# [4] = dose: 50.0 mg/kg/injection, schedule: Q01DX009 (ip), vehicle: saline with Tween-80
# [5] = dose: 100.0 mg/kg/injection, schedule: Q01DX009 (ip), vehicle: saline with Tween-80
# [6] = dose: 200.0 mg/kg/injection, schedule: Q01DX009 (ip), vehicle: saline with Tween-80
# [7] = dose: 55.0 mg/kg/injection, schedule: Q04DX003 (ip), vehicle: saline
structure (smiles),measurement,setting,value
Nc1cc(NC(=O)c2ccc(Cl)cc2)ccc1S(=O)(=O)O,survivor count,[1],6 of 6
CC1=C[S+](c2ccccc2)c2cccc3cc4ccccc4c1c23 (centres undefined),T/C,"dose: 0.4 mg/kg/injection, schedule: Q01DX009 (ip), vehicle: saline with Tween-80",140 % of control [5 of 6 alive]
same,T/C,"dose: 0.62 mg/kg/injection, schedule: Q01DX009 (ip), vehicle: saline with Tween-80",145 % of control
same,T/C,"dose: 0.63 mg/kg/injection, schedule: Q01DX009 (ip), vehicle: saline with Tween-80",141 % of control
same,T/C,"dose: 1.25 mg/kg/injection, schedule: Q01DX009 (ip), vehicle: saline with Tween-80",133 % of control
O=C(CNC(=O)c1cccc(C(=O)NCC(=O)Nc2ccc(C3=NCCN3)cc2)c1)Nc1ccc(C2=NCCN2)cc1,T/C,"dose: 12.5 mg/kg/injection, schedule: Q01DX009 (ip), vehicle: saline",131 and 140 % of control
same,T/C,"dose: 18.0 mg/kg/injection, schedule: Q01DX009 (ip), vehicle: saline",132 % of control
O=C(O)c1c2c(nc3ccccc13)Cc1ccccc1-2,T/C,"dose: 50.0 mg/kg/injection, schedule: Q01DX009 (ip), vehicle: water",125 % of control
same,T/C,[2],128 % of control
same,survivor count,[3],0 of 6
same,survivor count,"dose: 200.0 mg/kg/injection, schedule: Q01DX009 (ip), vehicle: water",4 of 6
same,survivor count,"dose: 300.0 mg/kg/injection, schedule: Q01DX009 (ip), vehicle: Klucel (hydroxypropylcellulose) (HPC)",4 of 6
same,survivor count,"dose: 300.0 mg/kg/injection, schedule: Q01DX009 (ip), vehicle: saline",0 of 6
same,survivor count,"dose: 400.0 mg/kg/injection, schedule: Q01DX009 (ip), vehicle: water",0 of 6
CC12CCC(O)CC1CCC1C2CCC2(C)C(c3ccc(=O)oc3)C(O)C3OC132 (centres undefined),survivor count,"dose: 1.87 mg/kg/injection, schedule: Q01DX009 (ip), vehicle: Klucel (hydroxypropylcellulose) (HPC)",4 of 6
CN(C)C(=S)/N=c1\ss/c(=N/C(=S)N(C)C)n1-c1ccc([N+](=O)[O-])cc1,survivor count,[4],6 of 6
same,survivor count,[5],6 of 6
same,survivor count,[6],6 of 6
O=C(Nc1ccc(NC(=O)Nc2ccc(C3=NCCCN3)cc2)cc1)Nc1ccc(C2=NCCCN2)cc1,T/C,"dose: 40.0 mg/kg/injection, schedule: Q04DX003 (ip), vehicle: saline",140 % of control
C/C=C/C=C/C(=O)NO,survivor count,"dose: 100.0 mg/kg/injection, schedule: Q01DX009 (ip), vehicle: Klucel (hydroxypropylcellulose) (HPC)",6 of 6
O=C(CCCCl)CC(O)(C(F)(F)F)C(F)(F)F,survivor count,[4],6 of 6
same,survivor count,[6],6 of 6
"CC(=O)OC1CC(C)N2C(=O)C(C(C)C)NC(=O)C(NC(=O)c3ccc(C)c4oc5c(C)c(=O)c(N)c(C(=O)NC6C(=O)NC(C(C)C)C(=O)N7C(C)CC(=O)C7C(=O)N(C)CC(=O)N(C)C(C)C(=O)OC6C)c-5nc34)C(C)OC(=O)C(C(C)C)N(C)C(=O)CN(C)C(=O)C12 (centres undefined) (I: TV[X1][Sar][NMeA] / II: TV[X2][Sar][NMeV]; ester I:1-I:C, II:1-II:C; linker I:N-II:N via Actinocin(1to9); configuration not given here)",T/C,"dose: 0.2 mg/kg/injection, schedule: Q01DX009 (ip), vehicle: saline + alcohol",145 % of control
same,T/C,"dose: 0.4 mg/kg/injection, schedule: Q01DX001 (ip), vehicle: saline + alcohol",125 % of control
same,T/C,"dose: 0.6 mg/kg/injection, schedule: Q04DX003 (ip), vehicle: saline + alcohol",130 % of control
same,T/C,"dose: 0.8 mg/kg/injection, schedule: Q01DX001 (ip), vehicle: saline + alcohol",130 % of control
same,T/C,"dose: 1.6 mg/kg/injection, schedule: Q01DX001 (ip), vehicle: saline + alcohol",140 % of control
same,T/C,"dose: 3.2 mg/kg/injection, schedule: Q01DX001 (ip), vehicle: saline + alcohol",145 % of control
C=CC(=O)O,survivor count,"dose: 3.3 mg/kg/injection, schedule: Q01DX001 (ip), vehicle: Klucel (hydroxypropylcellulose) (HPC)",3 of 6
same,survivor count,"dose: 6.6 mg/kg/injection, schedule: Q01DX001 (ip), vehicle: Klucel (hydroxypropylcellulose) (HPC)",1 of 6
same,survivor count,"dose: 10.0 mg/kg/injection, schedule: Q04DX003 (ip), vehicle: Klucel (hydroxypropylcellulose) (HPC)",3 of 6
same,survivor count,"dose: 12.0 mg/kg/injection, schedule: Q01DX009 (ip), vehicle: saline",1 of 6
same,survivor count,"dose: 15.0 mg/kg/injection, schedule: Q04DX003 (ip), vehicle: Klucel (hydroxypropylcellulose) (HPC)",2 of 6
O=c1cc(CCl)[nH]nc1CCl,T/C,"dose: 10.0 mg/kg/injection, schedule: Q04DX003 (ip), vehicle: saline with Tween-80",142 % of control
same,T/C,"dose: 50.0 mg/kg/injection, schedule: Q04DX003 (ip), vehicle: saline with Tween-80",136 % of control
CC(C)CCNc1ncnc2[nH]ncc12,survivor count,"dose: 12.5 mg/kg/injection, schedule: Q01DX009 (ip), vehicle: Klucel (hydroxypropylcellulose) (HPC)",6 of 6
same,survivor count,"dose: 50.0 mg/kg/injection, schedule: Q01DX009 (ip), vehicle: Klucel (hydroxypropylcellulose) (HPC)",4 of 6
same,survivor count,[5],2 of 6
same,survivor count,"dose: 110.0 mg/kg/injection, schedule: Q04DX003 (ip), vehicle: Klucel (hydroxypropylcellulose) (HPC)",2 of 6
same,survivor count,"dose: 170.0 mg/kg/injection, schedule: Q04DX003 (ip), vehicle: Klucel (hydroxypropylcellulose) (HPC)",0 of 6
same,survivor count,"dose: 255.0 mg/kg/injection, schedule: Q04DX003 (ip), vehicle: Klucel (hydroxypropylcellulose) (HPC)",0 of 6
C/C(=N\NC(=S)N1CCC1)c1ccccn1,survivor count,[4],2 of 6
same,survivor count,[5],2 of 6
same,survivor count,[6],0 of 6
NNC(=O)C(=O)NCc1ccco1,survivor count,[5],0 of 6
same,survivor count,[6],0 of 6
CC1(C)N=C(N)N=C(N)N1c1ccc(OCC(=O)Nc2ccc(S(=O)(=O)F)cc2)c(Cl)c1,T/C,"dose: 66.0 mg/kg/injection, schedule: Q04DX003 (ip), vehicle: saline",131 % of control
same,survivor count,[3],1 of 6
same,survivor count,"dose: 400.0 mg/kg/injection, schedule: Q01DX008 (ip), vehicle: saline",4 of 6
COc1ccc2c(ccc[n+]2C)c1,T/C,"dose: 16.5 mg/kg/injection, schedule: Q01DX009 (ip), vehicle: saline",127 and 130 % of control [5 of 6 alive]
same,T/C,"dose: 25.0 mg/kg/injection, schedule: Q01DX009 (ip), vehicle: saline",140 [5 of 6 alive] and 145 % of control
same,T/C,"dose: 33.0 mg/kg/injection, schedule: Q01DX009 (ip), vehicle: saline",135 % of control
same,survivor count,[1],3 of 6
same,T/C,[7],130 % of control
same,survivor count,[7],3 of 6
same,survivor count,"dose: 75.0 mg/kg/injection, schedule: Q01DX009 (ip), vehicle: saline",3 of 6
same,survivor count,"dose: 80.0 mg/kg/injection, schedule: Q04DX003 (ip), vehicle: saline",1 of 6
same,survivor count,"dose: 82.5 mg/kg/injection, schedule: Q04DX003 (ip), vehicle: saline",1 of 6
same,survivor count,"dose: 85.0 mg/kg/injection, schedule: Q04DX003 (ip), vehicle: saline",4 of 6
same,survivor count,"dose: 125.0 mg/kg/injection, schedule: Q04DX003 (ip), vehicle: saline",0 of 6
CC1(C)N=C(N)N=C(N)N1c1ccc(CNC(=O)Nc2ccc(S(=O)(=O)F)cc2)c(Cl)c1,T/C,"dose: 59.0 mg/kg/injection, schedule: Q04DX003 (ip), vehicle: saline with Tween-80",149 % of control
Nc1ccn([C@@H](C=O)O[C@@H](C=O)CO)c(=O)n1,T/C,"dose: 13.3 mg/kg/injection, schedule: Q01DX009 (ip), vehicle: saline",127 % of control
same,T/C,"dose: 20.0 mg/kg/injection, schedule: Q01DX009 (ip), vehicle: saline",144 % of control
same,T/C,"dose: 30.0 mg/kg/injection, schedule: Q01DX009 (ip), vehicle: saline",144 % of control
same,T/C,"dose: 44.0 mg/kg/injection, schedule: Q01DX009 (ip), vehicle: saline",137 % of control
same,T/C,"dose: 66.0 mg/kg/injection, schedule: Q01DX009 (ip), vehicle: saline",145 % of control
same,T/C,[2],145 % of control
same,T/C,"dose: 100.0 mg/kg/injection, schedule: Q04DX003 (ip), vehicle: saline",145 % of control
C/C=C1\C[N+]2(C)CCC34c5ccccc5NC32C(O)CC1C4(CO)C(=O)OC (centres undefined),T/C,"dose: 16.0 mg/kg/injection, schedule: Q01DX009 (ip), vehicle: saline with Tween-80",127 % of control

# From PubChem BioAssay AID328 (DTP/NCI, 2004)
